According to patent US20050069542A1 (Human Genome Sciences, published 2005):
No constants are given. Whether binding was seen depends on the method and setting. Some binding calls cover weakened binding; strength is not graded here.

Protein sequences, listed by entry. Tags and fused reporters are not part of them. Lines headed by an entry give the natural chain unless they say otherwise; changes in a name come on top.
UniProt Q9HD89: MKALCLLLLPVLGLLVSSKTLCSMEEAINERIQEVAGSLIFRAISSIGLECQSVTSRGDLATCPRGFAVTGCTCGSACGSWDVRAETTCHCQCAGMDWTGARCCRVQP

Legend:
[1] = biological target: Flag-tagged recombinant human GMAD (human) (UniProt Q9HD89); assay: phage display selection of scFvs
[2] = biological target: Flag-tagged recombinant human GMAD (human) (UniProt Q9HD89); assay: phage ELISA

B1: GMBC652 (scFv)
scFv: GVQLVQSGGVVVKPGGSLRLSCAASGFTFSDAWMNWVRQAPGKGLEWVGRIKSKGSGGTTDYAAPVKGRFTISRDDSENTLYLQMNSLKTEDTAVYYCTWDHSYYYDMAVWGRGTMVTASSGGGGSGGGGSGGGGSQSVLTQPASVSGSPGQSITISCTGTSSDVGGYNYVSWYQQHPGKAPKFMIYDVSKRPSGVSNRFSGSKSGNTASLTISGVQAEDEADYYCSSYTSASTVIFGGGTKLTVLG
With B1 the binding [1] was “binds” and the binding [2] was “binds”.

B2: GMBC655 (scFv)
scFv: EVQLVESGGGLVKPGGSLRLSCAASGFTFSSYGMSWIRQAPGKGQEWVSAISGSGGSAYYADSVKGRFTISRDNSKNTLYLQMNSLRAEDTAVYYCAKAYSSEDYWGRGTMVTVSSGGGGSGGGGSGGGGSNIQMTQSPSFLSASVGDRVTITCRASQGINNYLAWYQQKPGRAPKLLIYAASSLQSGVPSRFSGSGSGTDFTLTISSLQPDDFATYYCQQYSNYPLTFGGGTKLEIKR
In the case of B2, the binding [1] is reported as “binds” and the binding [2] is reported as “binds”.

B3: GMBC662 (scFv)
scFv: GVQLVQSGAEVKKPGSSVKVSCKASGGTFSSYTISWVRQAPGQGLEWMGRIIPILGIANYAQKFQGRVTITADKSTSTAYMELSSLRSEDTAVYYCAREKLRDFQHWGQGTLVTVSSGGGGSGGGGSGGGGSQSVLTQPASVSGSPGQSITISCTGTSSDVGGYNYVSWYQQHPGKAPKLMIYEGSKRPSGISNRFSGSKSGNTASLTISRLQAEDEADYYCSSYTTRSTRVFGGGTKLTVLG
B3 was tested, and the binding [1] was “binds” and the binding [2] was “binds”.

B4: GMBC669 (scFv)
scFv: QVQLVESGGALVKPGGSLRLSCAASGFTFSDAWMNWVRQAPGKGLEWVGRIKSKGSGGTIDYAAPVKDRFTISRDDSKNTLYLQMNSLKTEDTALYYCTWDWDFYYGMNVWGQGTLVTVSSGGGGSGGGGSGGGGSQSVLTQPPSASGSPGQSVTISCTGTSSDVGGYNYVSWYQQHPGKAPKFMIYDVSKRPSGVSNRFSGSKSGNTASLTISGVQAEDEADYYCSSYTSASTVIFGGGTKLTVLG
B4 was tested, and the binding [1] was “binds” and the binding [2] was “binds”.

B5: GMBC673 (scFv)
scFv: EVQLVESGGGLVQTGGSLRLSCAASGFPIGSHWMSWVRQSPGKGLEWVASIKQDGREKHFVDSVKGRFGISRDNAKDSLYLQMNSLRIEDTAVYYCARETYGGYYYYFMDVWGRGTLVTVSSGGGGSGGGGSGGGGSSELTQDPAVSVALGQTVRITCQGDSLRSYYASWYQQKPGQAPVLVIYGKNNRPSGIPDRFSGSSSGNTASLTITGAQAEDEADYYCQTWGPGIRVFGGGTKLTVLG
In the case of B5, the binding [1] is reported as “binds” and the binding [2] is reported as “binds”.

B6: GMBC678 (scFv)
scFv: EVQLVESGGGLVKPGGSLRLSCAASGFTFSDAWMNWVRQAPGKGLEWVGRIKSKGSGGTIDYAAPVKDRFTISRDDSKNTLYLQMNSLKTEDTALYYCTWDWDFYYGMNVWGQGTLVTVSSGGGGSGGGGSGGGGSQSVLTQPPSASGSPGQSVTISCTGTSSDVGGYNYVSWYQQHPGKAPKFMIYDVSKRPSGVSNRFSGSKSGNTASLTISGVQAEDEADYYCSSYTSASTVIFGGGTKLTVLG
In the case of B6, the binding [1] is reported as “binds” and the binding [2] is reported as “binds”.

B7: GMBC681 (scFv)
scFv: QVQLVQSGGGVVQPGGSLRLSCAASGFTFSSYGMHWVRQAPGKGLEWVAFIRYDGSNKYYADSVKGRFTISRDNSKNTLYLQMNSLRAEDTAVYYCAKGGTGYFDLWGRGTLVTVSSGGGGSGGGGSGGGGSDIQMTQSPSTLSASIGDRVTITCRASEGIYHWLAWYQQKPGKAPKLLIYKASSLASGAPSRFSGSGSGTDFTLTISSLQPDDFATYYCQQYSNYPLTFGGGTKLEIKR
B7 was tested, and the binding [1] was “binds” and the binding [2] was “binds”.

B8: GMBC687 (scFv)
scFv: QVQLVQSGAEVKKPGSSVKVSCKAPGDTFSNYIFNWVRQAPGQGLEWMGGIIPKFGTVNDAHKFQDRVTIAADESTNTASMELSSLTSEDTAVYYCACEPIPKDYGDVNGLEIWGKGTMVTVSSGGGGSGGGGSGGGGSDIQMTQSPSTLSASIGDRVTITCRASEGIYHWLAWYQQKPGKAPKLLIYKASSLASGAPSRFSGSGSGTDFTLTISSLQPDDFATYYCQQYSNYPLTFGGGTKLEIKR
For B8, the binding [1] was “binds” and the binding [2] was “binds”.

B9: GMBC689 (scFv)
scFv: QVQLVESGGGLVKPGGSLRLSCAASGFTFSDAWMNWVRQAPGKGLEWVGRIKSKGSGGTIDYAAPVKDRFTISRDDSKNTLYLQMNSLKTEDTALYYCTWDWDFYYGMNVWGQGTLVTVSSGGGGSGGGGSGGGGSQSVLTQPPSASGSPGQSVTISCTGTSSDVGGYNYVSWYQQHPGKAPKFMIYDVSKRPSGVSNRFSGSKSGNTASLTISGVQAEDEADYYCSSYTSASTVVFGGGTKLTVLG
B9 was tested, and the binding [1] was “binds” and the binding [2] was “binds”.

B10: GMBC691 (scFv)
scFv: EVQLVQSGAEVKKPGASMKVSCKTSGDTFNGFYVHWVRQAPGQGLEWMGRINPNGGGTNYAQKFQGRVTMTRDTSMNTAYMELRSLRSDDTAVYYCARDLFYDFWSDYYRNDQYYYMDVWGRGTLVTVSSGGGGSGGGGSGGGGSSELTQDPAVSVALGQTVRITCQGDSLRSYYASWYQQKPGQAPVLVIYGKNNRPSGIPDRFSGSSSGNTASLTITGAQAEDEADYYCNSRDSSGNHVVFGGGTKLTVLG
For B10, the binding [1] was “binds” and the binding [2] was “binds”.

B11: GMBC696 (scFv)
scFv: EVQLVQSRAEVKKPGASVKVSCKTSGYTFNGYYIHWVRQAPGQGLEWMGWIDPINSVTNYAQNFQGRVTMTRDTSINTAYMELSRLTSDDTAVYYCARARVSTILQYWGQGTLVTVSSGGGGSGGGGSGGGGSSELTQDPAVSVALGQTVRITCQGDSLRSYYASWYQQKPGQAPVLVIYGKNNRPSGIPDRFSGSSSGNTASLTITGAQAEDEADYYCNSRDSSGNHVVFGGGTKLTVLG
B11 was tested, and the binding [1] was “binds” and the binding [2] was “binds”.

B12: GMBC730 (scFv)
scFv: QVQLVESGGDSVKPGGSLRLSCAGSGFTFSDAWMNWVRQAPGKGLEWVGRMKSKGSGGTRDYAAPVNGRFTISRDDSKNTLYLQMNSLNTEDTGVYYCTWDWDFYYGMDVWGKGTTVTVSSGGGGSGGGGSGGGGSQSVLTQPASVSGSPGQSITISCTGTSSDVGGYNYVSWYQQHPGKAPKLMIYEGSKRPSGVSNRFSGSKSGNTASLTISGLQAEDEADYYCSSYTTRSTRVFGGGTKLTVLG
With B12 the binding [1] was “binds” and the binding [2] was “binds”.

B13: GMCC101 (scFv)
scFv: EVQLVQSGAEVKKPGSSVKVSCKASGGTFRTYAITWVRQAPGQGLEWMGGIIPISATANYAQKFQGRVTITADESMSTAYMELSSLRSEDTAVYYCARDREPHYFDNWGRGTMVTVSSGGGGSGGGGSGGGGSALPVLTQPPSVSEAPRQGVTISCSGSSSNIGNNAVSWYQQLPGQAPKLLIYYDDLLPSGVSDRFSASKSGTSASLAISGLQSEDEADYYCAAWDDSLNGVIFGGGTQLTVLS
With B13 the binding [1] was “binds” and the binding [2] was “binds”.

B14: GMCC105 (scFv)
scFv: QVQLVQSGGGVVQPGRSLRLSCTASGFNLGSHGMHWVRQAPGKGLEWVAVIGFDGTTKYYVDSVKGRFTISRDNSRNTLSLQMNSLRAEDTAVYYCVREDYYYDSSGYYFDYWGRGTLVTVSSGGGGSGGGGSGGGGSALSSELTQDPFVSVALGQTVRIACRGDSLRDSYASWYQQKPGQAPRLLVYGNNLRPSGIPGRFSGSSSGDTASLSITETQAGDEADYYCSSRGNSTSRLYVFGTGTKLTVLG
With B14 the binding [1] was “binds” and the binding [2] was “binds”.

B15: GMCC107 (scFv)
scFv: QVQLVQSGAEVKKPGASVKVSCRTSGYTFTDHSMHWVRQAPGQRFEWMGWIGADSGSTQYSRNFQGRLTIGRDTSASTVYMELTSLRSEDTAVYYCARVGGGQGWYSGMDVWGRGTLVTVSSGGGGSGGGGSGGGGSAQAVLTQPSSVSGAPGQRVTISCTGSSSNIGASYDVHWYQQLPGTAPKLLIYNNNNRPSGVPDRFSGSRSGTSASLAITGLQAEDEADYYCHSYDSNLSGDVFGSGTKLTVLG
With B15 the binding [1] was “binds” and the binding [2] was “binds”.

B16: GMCC108 (scFv)
scFv: EVQLVQSGAEVKEPGASVTVSCKASGYTFISYHMHWVRQAPGQGLEWMGIINPSGGDTTYAQKFQGRVTMTRDTSTSTVYMELRSLRFEDTARYYCARDLKFYDFRSGKYQDYGMDVWGQGTLVTVSSGGGGSGGGGSGGGGSAQSVLTQPPSLSVAPGQTASITCGGNDIGTKSVHWYQLKPGQAPVLVVYDNRDRPSGIPERFSGSNSGNTATLTISRVEGGDEADYYCQVWDSSIDHSEYVFGTGTKLTVLG
For B16, the binding [1] was “binds” and the binding [2] was “binds”.

B17: GMCC110 (scFv)
scFv: QVQLQESGPGLVKPSQTLSLTCTVSGASISSGGYRWIWIRQHPGQGLEWIGDIHYSGSTQYNPSLKSRVALTLDRSKNQFSLQLSSVTAADTAVYYCARDPRGHTYGYGYYFDYWGKGTLVTVSSGGGGSGGGGSGGGGSALSSELTQDPDVSVALGQTVTITCQGDRLRRYYASWYQQKPGQAPVLVIFRKNNRPSGIPDRFSGSSSGDTASLTITGAQAEDEADYYCNSRDTSGTLSFGGGTQLTVLS
With B17 the binding [1] was “binds” and the binding [2] was “binds”.

B18: GMCC112 (scFv)
scFv: QVQLVQSGGGLVQPGGSLRLSCAASGFSFSTYAMSWVRQAPGKGLEWVSGVSDGGDTFYADSVRGRFTLSRDNAKNTLFLQMNSLTAEDTATYYCAKEIARIGVPNFDHWGQGTLVTVSSGGGGSGGGGSGGGGSALETTLTQSPGTLSLSPGDRATLSCRASQSIRNNDVAWYQQKPGQAPRLLIYSASRRATDIPDRFSGSASGTDFTLTISRLEPEDFAMYYCQQYGGSASFGQGTRLEIKR
With B18 the binding [1] was “binds” and the binding [2] was “binds”.

B19: GMCC114 (scFv)
scFv: EVQLVESGPEVKKPGSSVKVSCKASGAAAFSSYAISWVRQAPGRGLEWMGGIIPISDTPKYAHKFQGRVTITADESTTTVFMEVSGLRSDDTAVYYCATTTRYGSGTYDYMDVWGQGTMVTVSSGGGGSGGGGSGGGGSALSSELTQDPAVSVALGQTVRITCQGDSLRSYYASWYQQKPGQAPVLVFYGKNKRPSGIPDRFSGSTSGNTASLSITGALADDEADYYCHSRDTSGAQILFGGGTKLTVLG
In the case of B19, the binding [1] is reported as “binds” and the binding [2] is reported as “binds”.
